Numbering of substitutions follows the chain as printed. Weaker means in comparison with the reference protein, sequence or condition of that experiment. Protein sequences can lack the tags named with them.

Results on 1 sequence are retold here after paper PMC7804152, “Structural basis for the multi-activity factor Rad5 in replication stress tolerance”.

In data set [1] the target is T1, KlRad5 R610E (Kluyveromyces lactis) (UniProt Q6CJM4).
T1 sequence (looked up): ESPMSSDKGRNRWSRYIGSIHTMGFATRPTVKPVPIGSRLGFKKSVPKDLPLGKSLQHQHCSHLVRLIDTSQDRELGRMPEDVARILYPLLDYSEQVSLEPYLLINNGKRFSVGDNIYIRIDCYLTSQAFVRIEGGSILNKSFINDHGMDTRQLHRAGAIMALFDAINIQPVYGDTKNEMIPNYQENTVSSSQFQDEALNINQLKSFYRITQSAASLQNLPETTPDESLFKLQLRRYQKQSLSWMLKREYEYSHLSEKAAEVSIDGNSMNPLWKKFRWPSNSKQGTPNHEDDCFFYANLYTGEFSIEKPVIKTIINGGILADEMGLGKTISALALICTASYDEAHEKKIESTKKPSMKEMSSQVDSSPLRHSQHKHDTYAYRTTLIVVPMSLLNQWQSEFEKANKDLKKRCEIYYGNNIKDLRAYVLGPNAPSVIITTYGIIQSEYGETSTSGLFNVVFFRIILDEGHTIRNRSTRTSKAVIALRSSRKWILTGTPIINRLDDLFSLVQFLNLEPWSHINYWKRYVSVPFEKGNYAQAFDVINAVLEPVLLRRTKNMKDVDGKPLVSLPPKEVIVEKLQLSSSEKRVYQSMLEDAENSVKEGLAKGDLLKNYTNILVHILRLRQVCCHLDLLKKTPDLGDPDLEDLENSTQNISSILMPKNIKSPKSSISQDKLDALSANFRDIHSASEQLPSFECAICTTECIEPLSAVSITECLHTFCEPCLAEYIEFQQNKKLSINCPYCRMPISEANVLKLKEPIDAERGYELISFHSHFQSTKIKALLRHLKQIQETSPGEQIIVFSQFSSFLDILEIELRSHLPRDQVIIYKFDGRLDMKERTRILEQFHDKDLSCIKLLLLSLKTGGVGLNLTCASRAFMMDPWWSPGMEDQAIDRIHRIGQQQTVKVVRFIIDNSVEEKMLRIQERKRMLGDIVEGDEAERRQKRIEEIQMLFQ
As to the kind of experiment: fluorescence polarization. The note with it: 50 mM NaCl; FP: 20 mM Tris pH 7.5, 50 mM (dsDNA, KlHIRAN) or 70 mM (ssDNA) NaCl, 2 mM MgCl2, 1 nM DNA, room temp; recombinant protein; residues 163-1114; label: 5'-FAM. (In fluorescence polarisation assays a small probe gives low polarisation when free and higher when bound to something large.)

The target of data set [2] is T2, KlRad5 K1023E (Kluyveromyces lactis) (UniProt Q6CJM4).
T2 sequence (looked up): T1 sequence (looked up) with E448R, K861E
The data set can be described thus: fluorescence polarization. The note with it: 50 mM NaCl; FP: 20 mM Tris pH 7.5, 50 mM (dsDNA, KlHIRAN) or 70 mM (ssDNA) NaCl, 2 mM MgCl2, 1 nM DNA, room temp; recombinant protein; residues 163-1114; label: 5'-FAM.

In the case of “ACCAGTGCCAGTGAT (double strand) [D2a/D2b dsDNA]”, the binding result in data set [1] and in data set [2] was “binds more weakly” in each case.
